According to paper PMC4830575:
No constants are given. Whether binding was seen depends on the method and setting. Binding seen in cells or lysates may run through a third protein. Some entries that bind do so weakly or less than the wild type. Tags and fused reporters may be left off the sequences shown.

B1: aPKC (enzyme, UniProt A1Z9X0 1-606)
chain: MQKMPSQILNDGSSVSLNSASMNMANTPNSITVKTAYNGQIIITTINKNISYEELCYEIRNICRFPLDQPFTIKWVDEENDPCTISTKMELDEAIRLYEMNFDSQLVIHVFPNVPQAPGLSCDGEDRSIYRRGARRWRKLYRVNGHIFQAKRFNRRAFCAYCQDRIWGLGRQGFKCIQCKLLVHKKCHKLVQKHCTDQPEPLVKERAEESSDPIPVPLPPLPYEAMSGGAEACETHDHAHIVAPPPPEDPLEPGTQRQYSLNDFELIRVIGRGSYAKVLMVELRRTRRIYAMKVIKKALVTDDEDIDWVQTEKHVFETASNHPFLVGLHSCFQTPSRLFFVIEFVRGGDLMYHMQRQRRLPEEHARFYAAEISLALNFLHEKGIIYRDLKLDNVLLDHEGHIKLTDYGMCKEGIRPGDTTSTFCGTPNYIAPEILRGEDYGFSVDWWALGVLLYEMLAGRSPFDLAGASENPDQNTEDYLFQVILEKTIRIPRSLSVRAASVLKGFLNKNPADRLGCHRESAFMDIVSHPFFKNMDWELLERKQVTPPFKPRLDSDRDLANFPPEFTGEAVQLTPDDDHVIDNIDQSEFEGFEYVNPLLMSLEDCV
B2: Discs-large (protein, UniProt P31007 1-970)
chain: MPVKKQEAHRALELLEDYHARLSEPQDRALRIAIERVIRIFKSRLFQALLDIQEFYELTLLDDSKSIQQKTAETLQIATKWEKDGQAVKIADFIKSSNLNRNCAYEFNNDASSNQTNQSALNQNPIANNVSAQAQAEALSRTFKSELEEILNQRMRIESDTENAKEPTVEQQQKQQQAQQRSSRSPQQQNPQQQQGSKSRSGSQTVNGDDSWLYEDIQLERGNSGLGFSIAGGTDNPHIGTDTSIYITKLISGGAAAADGRLSINDIIVSVNDVSVVDVPHASAVDALKKAGNVVKLHVKRKRGTATTPAAGSAAGDARDSAASGPKVIEIDLVKGGKGLGFSIAGGIGNQHIPGDNGIYVTKLMDGGAAQVDGRLSIGDKLIAVRTNGSEKNLENVTHELAVATLKSITDKVTLIIGKTQHLTTSASGGGGGGLSSGQQLSQSQSQLATSQSQSQVHQQQHATPMVNSQSTEPGSRYASTNVLAAVPPGTPRAVSTEDITREPRTITIQKGPQGLGFNIVGGEDGQGIYVSFILAGGPADLGSELKRGDQLLSVNNVNLTHATHEEAAQALKTSGGVVTLLAQYRPEEYNRFEARIQELKQQAALGAGGSGTLLRTTQKRSLYVRALFDYDPNRDDGLPSRGLPFKHGDILHVTNASDDEWWQARRVLGDNEDEQIGIVPSKRRWERKMRARDRSVKFQGHAAANNNLDKQSTLDRKKKNFTFSRKFPFMKSRDEKNEDGSDQEPFMLCYTQDDANAEGASEENVLSYEAVQRLSINYTRPVIILGPLKDRINDDLISEYPDKFGSCVPHTTRPKREYEVDGRDYHFVSSREQMERDIQNHLFIEAGQYNDNLYGTSVASVREVAEKGKHCILDVSGNAIKRLQVAQLYPVAVFIKPKSVDSVMEMNRRMTEEQAKKTYERAIKMEQEFGEYFTGVVQGDTIEEIYSKVKSMIWSQSGPTIWVPSKESL

Tests used:
[1] = biological target: T1, Bazooka endogenously tagged with GFP (Baz::GFP) (Drosophila (endogenous in embryos and wing imaginal discs)) (UniProt O96782); assay: co-IP; Baz::GFP embryo extract precipitated with a Baz antibody; Western blot
T1 sequence: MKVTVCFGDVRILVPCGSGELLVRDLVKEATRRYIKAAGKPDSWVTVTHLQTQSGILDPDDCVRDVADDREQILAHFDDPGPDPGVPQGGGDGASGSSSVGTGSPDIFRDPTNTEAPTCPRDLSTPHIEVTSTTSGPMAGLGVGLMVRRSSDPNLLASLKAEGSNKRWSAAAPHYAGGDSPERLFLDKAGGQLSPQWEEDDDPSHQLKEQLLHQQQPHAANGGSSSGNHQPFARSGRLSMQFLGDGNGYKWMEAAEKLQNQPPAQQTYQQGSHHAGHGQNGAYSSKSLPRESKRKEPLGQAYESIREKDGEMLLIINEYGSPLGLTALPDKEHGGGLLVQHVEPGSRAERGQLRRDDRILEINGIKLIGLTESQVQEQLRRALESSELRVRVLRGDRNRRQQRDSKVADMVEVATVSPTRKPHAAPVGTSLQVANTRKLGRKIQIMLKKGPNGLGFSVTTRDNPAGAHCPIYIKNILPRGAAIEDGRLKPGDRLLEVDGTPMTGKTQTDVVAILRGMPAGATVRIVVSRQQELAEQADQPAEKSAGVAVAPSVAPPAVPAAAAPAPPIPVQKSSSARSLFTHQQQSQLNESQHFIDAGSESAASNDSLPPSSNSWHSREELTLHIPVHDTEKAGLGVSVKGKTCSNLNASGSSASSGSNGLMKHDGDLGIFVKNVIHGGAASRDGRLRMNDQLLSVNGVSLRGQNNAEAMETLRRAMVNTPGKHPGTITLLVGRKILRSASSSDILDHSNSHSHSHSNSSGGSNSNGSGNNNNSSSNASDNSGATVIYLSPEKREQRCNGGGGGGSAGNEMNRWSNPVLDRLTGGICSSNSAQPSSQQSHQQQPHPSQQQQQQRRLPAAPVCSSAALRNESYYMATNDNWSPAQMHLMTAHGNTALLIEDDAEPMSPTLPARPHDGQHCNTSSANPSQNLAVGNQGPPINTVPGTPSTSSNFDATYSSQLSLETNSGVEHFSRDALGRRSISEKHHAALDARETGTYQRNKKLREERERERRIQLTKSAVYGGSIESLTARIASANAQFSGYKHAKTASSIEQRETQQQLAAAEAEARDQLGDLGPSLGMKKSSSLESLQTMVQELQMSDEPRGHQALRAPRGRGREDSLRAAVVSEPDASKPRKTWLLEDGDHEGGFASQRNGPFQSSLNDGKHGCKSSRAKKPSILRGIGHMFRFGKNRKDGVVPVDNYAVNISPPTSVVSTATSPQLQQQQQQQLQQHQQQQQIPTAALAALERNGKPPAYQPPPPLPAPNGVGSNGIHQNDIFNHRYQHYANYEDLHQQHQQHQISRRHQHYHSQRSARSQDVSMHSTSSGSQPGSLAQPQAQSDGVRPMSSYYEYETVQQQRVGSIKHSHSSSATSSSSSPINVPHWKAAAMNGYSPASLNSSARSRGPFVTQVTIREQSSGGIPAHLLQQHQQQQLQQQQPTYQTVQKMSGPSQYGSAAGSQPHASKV

[2] = biological target: T1, Bazooka endogenously tagged with GFP (Baz::GFP) (Drosophila (endogenous in embryos and wing imaginal discs)); assay: proximity ligation; Duolink PLA on fixed third instar wing imaginal discs; anti-GFP with anti-Magi or anti-aPKC antibodies; controls with one antibody only

| binding [1] | binding [2] | Binder |
| --- | --- | --- |
| binds | binds | B1 |
| no binding |  | B2 |
